# Test results: PubChem BioAssay AID272 (DTP/NCI, 2004)
# The list is a part of this screen's results and no random one: its compounds were picked by chemical class. Not every dose and run of a compound is shown. T/C is the treated group as % of the vehicle group. Some T/C values are marked as having no survivor count here; that says nothing about deaths at the dose. Schedules are NCI's codes, read here as Q, the interval in days (D) or hours (H), X, the number of doses. For survival time, the PubChem record calls one and a half times the control and up active, and a quarter to a half above the control has no call in these data; cut-offs in other NCI protocols can differ. Some entries hold several experiments; their values stand side by side, smallest first.
# Test system: Lewis lung carcinoma i.m., BDF1 mice, T/C %
# Test: NCI In Vivo Anticancer Drug Screen. Data for tumor model Lewis Lung Carcinoma (intramuscular) in B6D2F1 (BDF1) mice
# Settings: vehicle: saline
# Protocol: The antitumor activity of compounds was measured in mice bearing transplantable tumors. Survival or tumor size were measured and the results are expressed as the measurement made in the treated group (T) divided by the measurement made in the vehicle treated control group (C). The tumor model used in this assay is Lewis Lung Carcinoma (intramuscular) in B6D2F1 (BDF1) mice
compound,measurement,setting,value
NC1CCCCC1.NP(=O)(O)N(CCCl)CCCl,T/C,"T/C endpoint: mean tumor weight (est.), dose: 25.0 mg/kg/injection, schedule: Q04DX003 (ip), evaluation day not shown, higher T/C = larger tumour",62 % of control [survivor count not shown]
same,T/C,"T/C endpoint: mean tumor weight (est.), dose: 50.0 mg/kg/injection, schedule: Q04DX003 (ip), evaluation day not shown, higher T/C = larger tumour",48 % of control [survivor count not shown]
same,T/C,"T/C endpoint: mean tumor weight (est.), dose: 100.0 mg/kg/injection, schedule: Q04DX003 (ip), evaluation day not shown, higher T/C = larger tumour",27 % of control [survivor count not shown]
same,T/C,"T/C endpoint: mean tumor weight, dose: 25.0 mg/kg/injection, schedule: Q04DX003 (ip), evaluation day not shown, higher T/C = larger tumour",70 % of control [survivor count not shown]
same,T/C,"T/C endpoint: mean tumor weight, dose: 50.0 mg/kg/injection, schedule: Q04DX003 (ip), evaluation day not shown, higher T/C = larger tumour",42 % of control [survivor count not shown]
same,T/C,"T/C endpoint: median survival time, dose: 50.0 mg/kg/injection, schedule: Q04DX003 (ip), higher T/C = longer survival",96 % of control [survivor count not shown]
same,T/C,"T/C endpoint: median survival time, dose: 100.0 mg/kg/injection, schedule: Q04DX003 (ip), higher T/C = longer survival",108 % of control [survivor count not shown]
ClCCN(CCCl)c1ccccc1,T/C,"T/C endpoint: median survival time, dose: 6.25 mg/kg/injection, schedule: Q01DX011 (ip), higher T/C = longer survival",120 % of control [survivor count not shown]
same,T/C,"T/C endpoint: median survival time, dose: 12.5 mg/kg/injection, schedule: Q01DX011 (ip), higher T/C = longer survival",117 % of control [survivor count not shown]
same,T/C,"T/C endpoint: median survival time, dose: 25.0 mg/kg/injection, schedule: Q01DX011 (ip), higher T/C = longer survival",120 % of control [survivor count not shown]
same,T/C,"T/C endpoint: median survival time, dose: 50.0 mg/kg/injection, schedule: Q01DX011 (ip), higher T/C = longer survival",92 % of control [survivor count not shown]
CC(C(=O)O)N(CCCl)CCCl (configuration not stated),T/C,"T/C endpoint: mean tumor weight, dose: 1.12 mg/kg/injection, schedule: Q01DX011 (ip), evaluation day not shown, higher T/C = larger tumour",62 % of control [survivor count not shown]
same,T/C,"T/C endpoint: mean tumor weight, dose: 2.25 mg/kg/injection, schedule: Q01DX011 (ip), evaluation day not shown, higher T/C = larger tumour",57 % of control [survivor count not shown]
same,T/C,"T/C endpoint: mean tumor weight, dose: 4.5 mg/kg/injection, schedule: Q01DX011 (ip), evaluation day not shown, higher T/C = larger tumour",47 % of control [survivor count not shown]
same,T/C,"T/C endpoint: median survival time, dose: 1.12 mg/kg/injection, schedule: Q01DX011 (ip), higher T/C = longer survival",102 [survivor count not shown] and 110 % of control [survivor count not shown]
same,T/C,"T/C endpoint: median survival time, dose: 2.25 mg/kg/injection, schedule: Q01DX011 (ip), higher T/C = longer survival",90 [survivor count not shown] and 105 % of control [survivor count not shown]
same,T/C,"T/C endpoint: median survival time, dose: 4.5 mg/kg/injection, schedule: Q01DX011 (ip), higher T/C = longer survival",132 % of control [survivor count not shown]
